Measured values as given in the supplement of paper PMC8728848.
The other results are listed elsewhere or left out.

How the values were obtained:
Test in all cases: glycan array binding signal (z-score within array); higher = stronger binding
Conditions in all cases: glycan notation: IUPAC condensed, linker removed
[1] = biological target: Neu5Ac(a2-6)GlcNAc(b1-4)GlcNAc(b1-4)GlcNAc
How it was run: (§1)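 Glycan array data came from 3228 arrays in the Consortium for Functional Glycomics database, and only arrays with an available protein sequence were kept. Glycan names were put into IUPAC-condensed notation, and columns mapping to the same glycan were averaged. The binding signal is a within-array Z-score, averaged across arrays of one protein sequence run at different concentrations or buffers and across linkers. A negative Z-score can be read as non-binding.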

[2] = biological target: Neu5Ac(a2-8)Neu5Ac
How it was run: as §1

[3] = biological target: Neu5Ac(a2-8)Neu5Ac(a2-3)Gal(b1-3)GalNAc(b1-4)[Neu5Ac(a2-3)]Gal(b1-4)Glc
How it was run: as §1

[4] = biological target: Neu5Ac(a2-8)Neu5Ac(a2-3)Gal(b1-3)GalNAc(b1-4)[Neu5Ac(a2-8)Neu5Ac(a2-3)]Gal(b1-4)Glc
How it was run: as §1

[5] = biological target: Neu5Ac(a2-8)Neu5Ac(a2-3)Gal(b1-4)Glc
How it was run: as §1

[6] = biological target: Neu5Ac(a2-8)Neu5Ac(a2-3)Gal(b1-4)GlcNAc
How it was run: as §1

[7] = biological target: Neu5Ac(a2-8)Neu5Ac(a2-3)[Gal(b1-3)GalNAc(b1-4)]Gal(b1-4)Glc
How it was run: as §1

[8] = biological target: Neu5Ac(a2-8)Neu5Ac(a2-3)[GalNAc(b1-4)]Gal(b1-4)Glc
How it was run: as §1

[9] = biological target: Neu5Ac(a2-8)Neu5Ac(a2-8)Neu5Ac
How it was run: as §1

[10] = biological target: Neu5Ac(a2-8)Neu5Ac(a2-8)Neu5Ac(a2-3)Gal(b1-4)Glc
How it was run: as §1

[11] = biological target: Neu5Ac(a2-8)Neu5Ac(a2-8)Neu5Ac(a2-3)[Gal(b1-3)GalNAc(b1-4)]Gal(b1-4)Glc
How it was run: as §1

[12] = biological target: Neu5Ac(a2-8)Neu5Ac(a2-8)Neu5Ac(a2-3)[GalNAc(b1-4)]Gal(b1-4)Glc
How it was run: as §1

[13] = biological target: Neu5Ac(a2-8)Neu5Ac(a2-8)Neu5Ac(a2-8)Neu5Ac(a2-3)[GalNAc(b1-4)]Gal(b1-4)Glc
How it was run: as §1

[14] = biological target: Neu5Ac(a2-8)Neu5Gc(a2-3)Gal(b1-4)GlcNAc
How it was run: as §1

[15] = biological target: Neu5Ac(b2-6)Gal(b1-4)GlcNAc
How it was run: as §1

[16] = biological target: Neu5Ac(b2-6)GalNAc
How it was run: as §1

[17] = biological target: Neu5Ac9Ac(a2-3)Gal(b1-3)GlcNAc
How it was run: as §1

[18] = biological target: Neu5Ac9Ac(a2-3)Gal(b1-4)GlcNAc
How it was run: as §1

[19] = biological target: Neu5Ac9Ac(a2-6)Gal(b1-4)GlcNAc
How it was run: as §1

[20] = biological target: Neu5Gc(a2-3)Gal(b1-3)GlcNAc
How it was run: as §1

[21] = biological target: Neu5Gc(a2-3)Gal(b1-3)[Fuc(a1-4)]GlcNAc
How it was run: as §1

[22] = biological target: Neu5Gc(a2-3)Gal(b1-4)Glc
How it was run: as §1

[23] = biological target: Neu5Gc(a2-3)Gal(b1-4)GlcNAc
How it was run: as §1

[24] = biological target: Neu5Gc(a2-3)Gal(b1-4)GlcNAc(b1-3)Gal(b1-4)GlcNAc(b1-2)Man(a1-3)[Neu5Gc(a2-3)Gal(b1-4)GlcNAc(b1-3)Gal(b1-4)GlcNAc(b1-2)Man(a1-6)]Man(b1-4)GlcNAc(b1-4)GlcNAc
How it was run: as §1

[25] = biological target: Neu5Gc(a2-3)Gal(b1-4)[Fuc(a1-3)]GlcNAc
How it was run: as §1

[26] = biological target: Neu5Gc(a2-6)Gal(b1-4)GlcNAc
How it was run: as §1

[27] = biological target: Neu5Gc(a2-6)GalNAc
How it was run: as §1

[28] = biological target: Neu5Gc(a2-8)Neu5Ac(a2-3)Gal(b1-4)GlcNAc
How it was run: as §1

[29] = biological target: Neu5Gc(a2-8)Neu5Gc(a2-3)Gal(b1-4)GlcNAc
How it was run: as §1

[30] = biological target: Neu5Gc(a2-8)Neu5Gc(a2-3)Gal(b1-4)GlcNAc(b1-3)Gal(b1-4)GlcNAc
How it was run: as §1

[31] = biological target: Neu5Gc(a2-8)Neu5Gc(a2-6)Gal(b1-4)GlcNAc
How it was run: as §1

[32] = biological target: Neu5Gc(b2-6)Gal(b1-4)GlcNAc
How it was run: as §1

B1: TAL6-6LysM (Trichoderma atroviride) (protein)
chain: AASKLGVPQPAQRDQVNCQLYAVQPNDNCIDISSKNNITYAQLLSWNPSLSSTCSNLASLNSSSICVSNPKGTFSISSNTVGATDIATTTAPVPSPTLDQTTSRCAKYYQVSDGDDCSHLTAQFAITLKDFIFLNSEVWQNCTNLELGYYYCVEPVGYISTYPGYLPTATTKPFNQTSATSLPYDGDPWARFSSNSSVIPIANGTRVDCYSYVYVKNLTENLFADCWNMASMYEITREELVLWNPSLGNDGSSGSNLSGAEASQVASSIAIPTTAPSSITTNLYTYPCTVAANISYCVALVSSTGALPTNTAPPGPHASGEISNCTAWFAPEAYDTCKSILDIFEMSFANFYKMNPSVGPDCSGLAVGTNYCVSTYPNGEDPNDDWDGDDSIPSISPTGIITPTPTQSGMVSNCNKFYDVHSNDGCSAIASSQHVDLSSLYKWNPAIKTDCSGLQASVYVCIGILTTSMSTTSKLPTTTSKPSTTSKPPTGITTPTPTQSGMVKNCNKFYDVHSGDGCSAIASSQKVNLSSFYLWNPAVKTDCSGLQASVFVCIGTLTTSMSTTTSKLPTTTSKPSTTSKPPTGIITPTPTQNGMVKNCNKFYDVHSGDGCSAIASSQKVNLSSFYLWNPAVKTDCSGLQASVFVCVGTATTTTAAGITTPTPTQSGMVSGCNKFYDVHAGDGCSAIASSQKIALSSLYKWNPAVKTDCSGLQASVYICIGVGNAAAARVTGAAASFLEQKLISEEDLNSAVDHHHHHH
[1]
  glycan array binding signal (z-score): -1
[2]
  glycan array binding signal (z-score): -0.044
[3]
  glycan array binding signal (z-score): -0.253
[4]
  glycan array binding signal (z-score): 0.052
[5]
  glycan array binding signal (z-score): -1.51
[6]
  glycan array binding signal (z-score): -1.09
[7]
  glycan array binding signal (z-score): -0.399
[8]
  glycan array binding signal (z-score): 2.17
[9]
  glycan array binding signal (z-score): -0.139
[10]
  glycan array binding signal (z-score): -0.819
[11]
  glycan array binding signal (z-score): -0.053
[12]
  glycan array binding signal (z-score): 1.2
[13]
  glycan array binding signal (z-score): 0.373
[14]
  glycan array binding signal (z-score): -0.396
[15]
  glycan array binding signal (z-score): 0.126
[16]
  glycan array binding signal (z-score): -0.369
[17]
  glycan array binding signal (z-score): -1.09
[18]
  glycan array binding signal (z-score): -1.11
[19]
  glycan array binding signal (z-score): -0.339
[20]
  glycan array binding signal (z-score): -0.841
[21]
  glycan array binding signal (z-score): -1.24
[22]
  glycan array binding signal (z-score): -1.25
[23]
  glycan array binding signal (z-score): -0.605
[24]
  glycan array binding signal (z-score): -1.84
[25]
  glycan array binding signal (z-score): 0.247
[26]
  glycan array binding signal (z-score): 0.191
[27]
  glycan array binding signal (z-score): -0.67
[28]
  glycan array binding signal (z-score): -0.626
[29]
  glycan array binding signal (z-score): -1.72
[30]
  glycan array binding signal (z-score): -0.429
[31]
  glycan array binding signal (z-score): -0.455
[32]
  glycan array binding signal (z-score): 0.217
